Source: the supplement of paper PMC10338343
± gives the standard deviation. The entries are a selection whose mix differs from that of the whole data set. Many entries were measured with a wide error. The list shows a part of the results.

Key:
[1] = system: MIWI (PIWIL1) piRISC loaded with L1MC piRNA (30 nt); assay: pre-steady-state target cleavage rate (min^-1); higher = faster piRNA-guided slicing of the target; details: guide: L1MC piRNA 5'p-UAACUAAAUACUAUGCAAGCUGUAGGUCCU;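 further: 1 nM active piRISC with 0.1 nM target library at 33 °C single turnover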
Outline: (§1)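 In this Cleave-'n-Seq assay, uncleaved targets were sequenced and normalised to depth and to weakly complementary targets. They came from a transcribed, DNA-blocked target RNA library […] mixed with 1 nM active affinity-purified piRISC carrying one synthetic guide, with or without 500 nM GTSF1 partner protein, in HEPES–potassium acetate buffer at 33 °C for 0–8 or 0–960 min. After three trials were pooled and k3 was capped at 0.0001 min^-1, the pre-steady-state cleavage rate was obtained from a burst-and-steady-state fit.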

[2] = system: EfPiwi piRISC loaded with L1MC piRNA (26 nt); assay: pre-steady-state target cleavage rate (min^-1); guide: L1MC piRNA 5'p-UAACUAAAUACUAUGCAAGCUGUAGG; MIWI and MILI are mouse PIWI proteins and EfPiwi is from a freshwater sponge; tags in brackets are library labels; higher = faster piRNA-guided slicing of the target
Outline: as §1

[3] = auxiliary factor: none (no GTSF1)
[4] = auxiliary factor: 500 nM Ephydatia muelleri Gtsf1
[5] = auxiliary factor: 500 nM mouse GTSF1
[6] = auxiliary factor: none (no Gtsf1)

Sequence | pre-steady-state target cleavage rate [1, 3] | pre-steady-state target cleavage rate [2, 4] | pre-steady-state target cleavage rate [1, 5] | pre-steady-state target cleavage rate [2, 6]
UCCUGGAUGAGCUUGGAAAGUAUUUAGUUA | 0.00245 ± 0.0031 | 0.00122 ± 0.0047 | – | –
UCCUGGAUGUCCUUGCAUAGUAUUUACAAA | 0.00154 ± 0.0051 | 0.00325 ± 0.0045 | – | –
UCCUGGAUGAGCUUCCUUAGUAUUUAGUUA | 0.00134 ± 0.0043 | 0.00268 ± 0.003 | – | –
UCCUGGAUCAGCUUGCUAUGUAUUUAGUAA | 0.0014 ± 0.0032 | 0.000255 ± 0.012 | – | –
UCCUGGAUGUCCUUGGAUAGUAUUAAGUUA | 0.000465 ± 0.016 | 0.000443 ± 0.012 | – | –
UCCUGGUACACGUUGCAUAGUAUUUAGUAA | 0.00321 ± 0.0035 | 0.00219 ± 0.0043 | – | –
UCCUGGAACACGUUGCAUAGUAUUUUCAAA | 0.00129 ± 0.006 | 0.00056 ± 0.0067 | – | –
UCCUGGAUGUCGAUGCAUAGUAUUUAGAUUA | 0.000709 ± 0.011 | 0.00188 ± 0.0025 | – | –
UCCUGGUACAGCUUCCAUUGUAUUUAGUUA | 0.0017 ± 0.0039 | 0.00136 ± 0.0058 | – | –
UCCUGCUACAGCAACCAUAGUAUUUAGUAA | 0.000403 ± 0.016 | 0.0014 ± 0.0059 | – | –
UCCUCCUACAGCUUGCAUAGUAUUUAUUA | 0.00152 ± 0.0046 | 0.00539 ± 0.0031 | – | –
UCCUGGAUGUCGAAGCAUGAGUAUUUAGUUA | 0.000491 ± 0.012 | 0.00018 ± 0.029 | – | –
UCCUGCUACAGCUUGCAUAGAUAUUAGAAA | 0.000104 ± 0.037 | 0.0015 ± 0.004 | – | –
UCCUGGAUGUCGAAGCAUAGUACUUUAGUUA | 0.000804 ± 0.0066 | 0.00136 ± 0.006 | – | –
UCCUGGAUGUCGAACGUAUGUAUUUAGGUUA | – | 0.0001 ± 0.041 | 0.000178 ± 0.039 | –
UCCUGGAUGUCGAACGUUACAAUUUAGUUA | 0.000324 ± 0.016 | < 0.0001 | – | –
UCCUGGAUGUGCUUGCAAUGUAUUUAGUAA | 0.00247 ± 0.0027 | 0.000339 ± 0.011 | – | –
UCCUCCUACAGCUUGGAUAGUAUUUACAAA | 0.00166 ± 0.0031 | 0.00267 ± 0.0022 | – | –
UCCUGGAUGUCGUUGCAUACAAUUUAGUUA | 0.000473 ± 0.014 | 0.000194 ± 0.017 | – | –
UCCUGGAUGAGGUUGCAUAGUUUUUAGUUA | 0.00277 ± 0.0039 | 0.00166 ± 0.0024 | – | –
UCCUGGAUGUCGAACGAGAGUAUUUAGUUA | 0.000319 ± 0.013 | 0.000484 ± 0.0099 | – | –
UCCUGGAUGUCGAACGUUAGAAUUUUGUUA | – | – | 0.000154 ± 0.053 | < 0.0001

Sequence | pre-steady-state target cleavage rate [1, 3] | pre-steady-state target cleavage rate [2, 4] | pre-steady-state target cleavage rate [1, 5] | pre-steady-state target cleavage rate [2, 6]
UCCUGCUACAGCUUGCAUAGAUAUUUAGUUA | 0.00142 ± 0.0066 | 0.00181 ± 0.0041 | – | –
UCCUGGAUGUCGAACGUAAUUAUUUAGUUA | 0.000173 ± 0.01 | < 0.0001 | – | –
UCCUGGAUGUGCUUGCAUUGUAAUUAGUUA | 0.00257 ± 0.0029 | 0.00224 ± 0.0039 | – | –
UCCUGGAUGUCGAACGUAUGUAUAUAGUAA | 0.000238 ± 0.021 | – | – | 0.000106 ± 0.052
UCCUGGAUGUCCAUGCAUAGUUUUUAGUUA | 0.00129 ± 0.0053 | 0.000336 ± 0.011 | – | –
UCCUGCUACAGCUUGCAUUCUAUUUUCAAA | 0.000628 ± 0.011 | 0.000338 ± 0.0092 | – | –
UCCUGGAUGUCGAUGCAUAUAUUUAGUUA | 0.00125 ± 0.0041 | 0.000832 ± 0.0093 | – | –
UCCUGGAUGAGCUUGCAUAGUAUAUAGAAA | 0.00227 ± 0.0036 | 0.000976 ± 0.007 | – | –
UCCUGGAACAGGAAGCAUAGUAUUUACAAA | 0.000498 ± 0.013 | 0.000362 ± 0.011 | – | –
UCCUGGAUGUCGAACGUACGUAUUUAGUUA | 0.000111 ± 0.048 | 0.000195 ± 0.03 | – | –
UCCUGCUACAGCUUCGAUAGUAUUUUCAAA | 0.00035 ± 0.02 | 0.00274 ± 0.0034 | – | –
UCCUGGAUGUCGAUGCAUAGAAUUUAGAUA | 0.000359 ± 0.016 | 0.000426 ± 0.015 | – | –
UCCUGGAUGUCGUUAGCAUAGUAUUUAGUUA | 0.00292 ± 0.0035 | 0.00456 ± 0.0035 | – | –
UCCUGGAUCAGCAACCAUAGUAUUUUCAAA | 0.00052 ± 0.0093 | – | – | < 0.0001
UCCUGGAUGUCCAACCAUAGUAUUUAGUUA | – | 0.000454 ± 0.0085 | 0.00291 ± 0.0043 | –
UCCUGGAUGUGCUUCAUAGUAUUUAGUUA | 0.00159 ± 0.0038 | 0.00929 ± 0.0056 | – | –
UCCUGGAUGUGGAAGCAUAGUAUUUAGUAA | – | 0.00225 ± 0.0054 | 0.0029 ± 0.0037 | –
UCCUGGAUGUCGAAGCAUAGUAUUUGGUUA | 0.000939 ± 0.0068 | 0.00039 ± 0.0089 | – | –
UCCUGGUACACGUUGCAUAGUAUUUUCAAA | 0.000585 ± 0.015 | 0.000266 ± 0.03 | – | –
UCCUGCUACAGCUUGCAUAGUAUAUAGAAA | 0.00119 ± 0.0042 | 0.00298 ± 0.0025 | – | –
UCCUGGAUGAGCUUGCUAUCAUAAAUCAAA [g15:g21:cont:t1A] | 0.000352 ± 0.012 | 0.000172 ± 0.018 | – | –
UCCUCCUACAGCUUGCAUAGAUAUUUAGUUA | 0.00136 ± 0.0053 | 0.00501 ± 0.0032 | – | –

Part of the list above, as tab-separated lines.
Sequence	pre-steady-state target cleavage rate [1, 3]	pre-steady-state target cleavage rate [2, 4]	pre-steady-state target cleavage rate [1, 5]	pre-steady-state target cleavage rate [2, 6]
UCCUGCUACAGCUUGCAUAGAUAUUUAGUUA	0.00142 ± 0.0066	0.00181 ± 0.0041	–	–
UCCUGGAUGUGCUUGCAUUGUAAUUAGUUA	0.00257 ± 0.0029	0.00224 ± 0.0039	–	–
UCCUGGAUGUCGAACGUAUGUAUAUAGUAA	0.000238 ± 0.021	–	–	0.000106 ± 0.052
UCCUGGAUGUCCAUGCAUAGUUUUUAGUUA	0.00129 ± 0.0053	0.000336 ± 0.011	–	–
UCCUGGAUGUCGAUGCAUAUAUUUAGUUA	0.00125 ± 0.0041	0.000832 ± 0.0093	–	–
UCCUGGAACAGGAAGCAUAGUAUUUACAAA	0.000498 ± 0.013	0.000362 ± 0.011	–	–
UCCUGGAUGUCGAUGCAUAGAAUUUAGAUA	0.000359 ± 0.016	0.000426 ± 0.015	–	–
UCCUGGAUGUCGUUAGCAUAGUAUUUAGUUA	0.00292 ± 0.0035	0.00456 ± 0.0035	–	–
UCCUGGAUCAGCAACCAUAGUAUUUUCAAA	0.00052 ± 0.0093	–	–	< 0.0001
UCCUGGAUGUGCUUCAUAGUAUUUAGUUA	0.00159 ± 0.0038	0.00929 ± 0.0056	–	–
UCCUGGAUGUGGAAGCAUAGUAUUUAGUAA	–	0.00225 ± 0.0054	0.0029 ± 0.0037	–
UCCUGGAUGUCGAAGCAUAGUAUUUGGUUA	0.000939 ± 0.0068	0.00039 ± 0.0089	–	–
UCCUGGUACACGUUGCAUAGUAUUUUCAAA	0.000585 ± 0.015	0.000266 ± 0.03	–	–
UCCUGGAUGAGCUUGCUAUCAUAAAUCAAA [g15:g21:cont:t1A]	0.000352 ± 0.012	0.000172 ± 0.018	–	–
UCCUCCUACAGCUUGCAUAGAUAUUUAGUUA	0.00136 ± 0.0053	0.00501 ± 0.0032	–	–

Next part

Sequence | pre-steady-state target cleavage rate [1, 3] | pre-steady-state target cleavage rate [2, 4] | pre-steady-state target cleavage rate [1, 5] | pre-steady-state target cleavage rate [2, 6]
UCCUGGAUGUCGUUGCAUAGUAUUUGAGUUA | 0.00139 ± 0.0067 | 0.000496 ± 0.0084 | – | –
UCCUGGAUGUCGUUGCAAAGUAUAUAGUUA | 0.000223 ± 0.02 | 0.000301 ± 0.013 | – | –
UCCUGGAUGUGCUUGCUAUGUAUUUAGAAA | 0.000881 ± 0.008 | 0.000267 ± 0.014 | – | –
UCCUGGAUCAGCUUGCAUAGAUUUUAGUAA | 0.0024 ± 0.0024 | 0.000872 ± 0.0037 | – | –
UCCUGGAUGUCGUUUCAUAGUAUUUAGUUA | 0.00066 ± 0.0085 | 0.000338 ± 0.015 | – | –
UCCUGGUACAGGUUGCAUAGUAUUUACAAA | 0.00182 ± 0.0033 | 0.00293 ± 0.0033 | – | –
UCCUCCUACAGCUACCAUAGUAUUUAGUUA | 0.00227 ± 0.0031 | – | – | 0.00061 ± 0.0099
UCCUGCAUGAGCUUGCAUAGUAUUUACAAA | 0.00279 ± 0.0036 | – | – | 0.000427 ± 0.016
UCCUGGAUGUCGUUGCAUUCAUAAAUCAAA [g13:g18:cont:t1A] | 0.000108 ± 0.036 | 0.000152 ± 0.017 | – | –
UCCUGGAUGUCGGUGCAUAGUAUUUAGUUA | 0.0013 ± 0.0063 | 0.00511 ± 0.0033 | – | –
UCCUGGAUGAGCUUCCAUAGUAUUUACUUA | 0.000864 ± 0.0087 | 0.00113 ± 0.0052 | – | –
UCCUGGAACAGCUUGCAUAGAUAUUUAGUUA | 0.0025 ± 0.0032 | 0.000632 ± 0.0068 | – | –
UCCUGGAUGUCCUUGCAUAGUAUAAAGUUA | 0.00252 ± 0.0034 | 0.00138 ± 0.007 | – | –
UCCUGGAUGUCGAUGCUUAGUAUUUAGAUA | 0.00058 ± 0.0096 | 0.000558 ± 0.0068 | – | –
UCCUGGAUGUCCUUGGAUAGUAUUUUGUUA | 0.00174 ± 0.004 | 0.000553 ± 0.0076 | – | –
UCCUGGAUGUCGAACGUUAGUAUAAAGUUA | 0.000147 ± 0.037 | 0.00026 ± 0.021 | – | –
UCCUGGAUGUCCUUGCAUAGUAUUUACUAA | 0.00123 ± 0.0046 | 0.00221 ± 0.0033 | – | –
UCCUGGAACAGCUUCCAUAGUUUUUAGUUA | 0.00111 ± 0.0066 | 0.000902 ± 0.0059 | – | –
UCCUGGAUGUCGAAGGAUAGUAUUUAGUAA | 0.00022 ± 0.021 | – | – | 0.000141 ± 0.06
UCCUGGAUGUCGAACGUAAAGUAUUUAGUUA | 0.000221 ± 0.022 | 0.000462 ± 0.012 | – | –
UCCUGGAACAGCUUGGAUAGUAUUUUCAAA | 0.00128 ± 0.0044 | 0.00097 ± 0.0046 | – | –
UCCUGGAUGUCGAAGCAUAGUAAUUUGUUA | 0.000813 ± 0.0075 | 0.000156 ± 0.024 | – | –
